The results are deposited in PubChem (AID977624; Broad Institute, 2014).

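GFP-tagged normal-ribosome E. coli mixed with an RFP-tagged h34 humanized strain, with green signal taken as growth after 24 hours.
The value is the change in activity at the highest dose tested; more negative means stronger inhibition.
Active requires GFP to fall at least twice as much as RFP with growth loss below a set limit; inconclusive means no clear call; everything else is inactive.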

These entries are mostly ones the record files as inconclusive; other results of the assay are not listed here.

compound | condition | activity change | call
CC(C)Cc1nnc(NS(=O)(=O)c2ccccc2)s1 | at 50 µM (top of the series) | -22.99 | inconclusive
COc1ccccc1C(C(C(=O)c1ccccc1)N1CCOCC1)N1CCOCC1 (configuration not stated) | at 50 µM (top of the series) | 35.38 | inconclusive
O=C(O)CCSc1nc2ccccc2n1-c1ccccc1 | at 50 µM (top of the series) | -51.28 | inconclusive
CCn1nc(C)cc1C(=O)N1CCCC(C(=O)c2ccc3ccccc3c2)C1 (configuration not stated) | at 50 µM (top of the series) | 10.95 | inactive
O=C(Nc1cccc(F)c1)N1[C@@H]2CNC[C@H]1C2c1ccc(-c2ccncc2)cc1 (some centres not stated) | at 50 µM (top of the series) | -34.49 | inconclusive
Cc1cc(OCC(=O)N(Cc2ccco2)C2CCS(=O)(=O)C2)ccc1Cl (configuration not stated) | at 50 µM (top of the series) | 10.78 | inconclusive
COc1ccccc1Cc1c(-c2ccc(F)cc2)nc2ccc(Br)cn12 | at 50 µM (top of the series) | 17.04 | inconclusive
COC(=O)c1ccc2nc(-c3ccco3)c(Cc3ccc(C)cc3)n2c1 | at 50 µM (top of the series) | 4.489 | inconclusive
CCN(C(=O)COC(=O)CCc1ccccc1)c1ccccc1 | at 50 µM (top of the series) | 8.771 | inactive
O=C(Nc1ccccc1N1CCOCC1)C1CCCCN1S(=O)(=O)c1ccccc1 (configuration not stated) | at 50 µM (top of the series) | 3.781 | inactive
CC(C)Cc1nc(N2CCNCC2)c(C#N)c2c1CCC2 | at 50 µM (top of the series) | -9.857 | inactive
COc1ccccc1CC(=O)NCc1csc(-c2cccs2)n1 | at 50 µM (top of the series) | 11.7 | inactive
COc1ccccc1NC(=O)N1CCCCN2[C@@H](CO)[C@H](c3ccc(C#Cc4ccccc4)cc3)[C@@H]2C1 | at 50 µM (top of the series) | 27.21 | inconclusive
COC(=O)[C@H](Cc1c[nH]c2ccccc12)NCc1cccc(B(O)O)c1 | at 50 µM (top of the series) | -6.574 | inconclusive
Cc1onc(-c2ccccc2Cl)c1C(=O)N1CCN(Cc2ccc3c(c2)OCO3)CC1 | at 50 µM (top of the series) | 8.013 | inactive
Cc1ccccc1S(=O)(=O)c1cc2ccccc2nc1N | at 50 µM (top of the series) | 8.408 | inconclusive
COc1ccc(C(=O)c2c(C)oc3ccc(O)cc23)cc1 | at 50 µM (top of the series) | -23.95 | inconclusive
Cc1cc(NC(=O)CSc2nccn2-c2cccc(C)c2C)no1 | at 50 µM (top of the series) | -1.824 | inactive
C[C@@H]1CCCCO[C@H](CN(C)CC2CCCCC2)[C@H](C)CN([C@@H](C)CO)C(=O)c2cc(NC(=O)Nc3cccc4ccccc34)ccc2O1 | at 50 µM (top of the series) | 3.722 | inactive
O=S(=O)(c1ccc(Cl)cc1)N1CCN=C1SCc1cccc(Cl)c1 | at 50 µM (top of the series) | -6.629 | inactive
O=S(=O)(c1cccc(-c2nc3ccccc3s2)c1)N1CCCC1 | at 50 µM (top of the series) | 8.464 | inconclusive
O=C(Nc1ccc(C(=O)N2CCOCC2)cc1)C1CCCC1 | at 50 µM (top of the series) | 42.7 | inconclusive
O=C(Cc1cccc(NC(=O)C2CCCN(C(=O)CCc3ccccc3)C2)c1)Nc1cccc(C(=O)N2CCCC2)c1 (configuration not stated) | at 50 µM (top of the series) | 5.111 | inconclusive
CC(C)(C)c1ccc(CCC2OCC(CN3CCOCC3)O2)cc1 (configuration not stated) | at 50 µM (top of the series) | 22.55 | inconclusive
CN1CCN(C(=O)c2cc3nc(-c4ccco4)cc(C(F)(F)F)n3n2)CC1 | at 50 µM (top of the series) | 37.27 | inconclusive
COc1ccccc1-c1cc2nc(NCCc3ccncc3)ccn2n1 | at 50 µM (top of the series) | -8.986 | inconclusive
O=C1c2ccccc2S(=O)(=O)c2cc(N3CCC(C(=O)N4CCCCC4)CC3)ccc21 | at 50 µM (top of the series) | 6.54 | inconclusive
NC(=O)C1Cc2ccccc2CN1C(=O)c1cc(C2CC2)nn1-c1ccccc1 (configuration not stated) | at 50 µM (top of the series) | -33.24 | inconclusive
CN(Cc1ccccc1)C(=O)c1[nH]cnc1C(=O)NCc1ccccc1 | at 50 µM (top of the series) | 4.871 | inconclusive
CCn1c(-c2cc(-c3ccc(OC(C)C)cc3)nc3ccccc23)n[nH]c1=S | at 50 µM (top of the series) | -18.92 | inconclusive
CCC(=O)Nc1nc2ccc(NC(=O)c3cc(OC)c(OC)c(OC)c3)cc2s1 | at 50 µM (top of the series) | -16.84 | inconclusive
O=C(Nc1ccc(Cl)cn1)c1cc2c(s1)-c1ccccc1OC2 | at 50 µM (top of the series) | 28.9 | inconclusive
CC(NC(=O)C12CC3CC(C)(CC(C)(C3)C1)C2)c1ccncc1 (configuration not stated) | at 50 µM (top of the series) | 42.76 | inconclusive
O=C(Nc1cccnc1)c1sc2cccc(F)c2c1Cl | at 50 µM (top of the series) | 19.61 | inconclusive
Cc1c(C(=O)N(Cc2ccc(F)cc2)C2CCS(=O)(=O)C2)oc2ccccc12 (configuration not stated) | at 50 µM (top of the series) | -23.1 | inconclusive
CN(C)CCCN(C(=O)CCOc1ccccc1)c1nc2c(F)cccc2s1 | at 50 µM (top of the series) | 13.42 | inconclusive
COc1ccccc1C(=O)C1CCCN(C(=O)CCC(=O)c2ccccc2)C1 (configuration not stated) | at 50 µM (top of the series) | 4.998 | inconclusive
Cc1ccc(Nc2cc(C(=O)NCCCN3CCOCC3)c3ccccc3n2)cc1C | at 50 µM (top of the series) | 26.65 | inconclusive
COc1cc2c(cc1OC)CN(c1ccc([N+](=O)[O-])c(C(F)(F)F)c1)CC2 | at 50 µM (top of the series) | 18.8 | inconclusive
Cn1cc([N+](=O)[O-])c(C(=O)Nc2ccc(-c3nc4ccccc4[nH]3)cc2)n1 | at 50 µM (top of the series) | 17.83 | inconclusive
Cc1n[nH]c(C)c1S(=O)(=O)N1CCCC(C(=O)Nc2ccc(Br)cc2)C1 (configuration not stated) | at 50 µM (top of the series) | 4.658 | inactive
CN1c2ccc(Cl)cc2C(=O)NC1C1CC=CCC1 (configuration not stated) | at 50 µM (top of the series) | 27.05 | inconclusive
CSc1ccc(CN2CCN(Cc3ccccc3Cl)CC2)cc1 | at 50 µM (top of the series) | 16.62 | inconclusive
O=C(COc1ccccc1Cl)Nc1nc(-c2ccncc2)cs1 | at 50 µM (top of the series) | 15.22 | inconclusive

Once more, the final 3:

{"compound": "CN1c2ccc(Cl)cc2C(=O)NC1C1CC=CCC1", "stereo": "configuration not stated", "condition": "at 50 µM (top of the series)", "activity change": "27.05", "call": "inconclusive"}
{"compound": "CSc1ccc(CN2CCN(Cc3ccccc3Cl)CC2)cc1", "condition": "at 50 µM (top of the series)", "activity change": "16.62", "call": "inconclusive"}
{"compound": "O=C(COc1ccccc1Cl)Nc1nc(-c2ccncc2)cs1", "condition": "at 50 µM (top of the series)", "activity change": "15.22", "call": "inconclusive"}